From paper PMC8390553
These are yes or no findings as the source states them, for the method shown. Binding seen in cells or lysates may run through a third protein. Some results given as binding are weak or reduced against the parent protein; the word gives no strength. For some assays here: Where a sequence is shown, tags or fusion partners need not be part of it.

Amino acid sequences for entries named in this document (tags omitted). A change or cut given only in a name is not applied to a line headed by its entry.
UniProt Q2NKJ3: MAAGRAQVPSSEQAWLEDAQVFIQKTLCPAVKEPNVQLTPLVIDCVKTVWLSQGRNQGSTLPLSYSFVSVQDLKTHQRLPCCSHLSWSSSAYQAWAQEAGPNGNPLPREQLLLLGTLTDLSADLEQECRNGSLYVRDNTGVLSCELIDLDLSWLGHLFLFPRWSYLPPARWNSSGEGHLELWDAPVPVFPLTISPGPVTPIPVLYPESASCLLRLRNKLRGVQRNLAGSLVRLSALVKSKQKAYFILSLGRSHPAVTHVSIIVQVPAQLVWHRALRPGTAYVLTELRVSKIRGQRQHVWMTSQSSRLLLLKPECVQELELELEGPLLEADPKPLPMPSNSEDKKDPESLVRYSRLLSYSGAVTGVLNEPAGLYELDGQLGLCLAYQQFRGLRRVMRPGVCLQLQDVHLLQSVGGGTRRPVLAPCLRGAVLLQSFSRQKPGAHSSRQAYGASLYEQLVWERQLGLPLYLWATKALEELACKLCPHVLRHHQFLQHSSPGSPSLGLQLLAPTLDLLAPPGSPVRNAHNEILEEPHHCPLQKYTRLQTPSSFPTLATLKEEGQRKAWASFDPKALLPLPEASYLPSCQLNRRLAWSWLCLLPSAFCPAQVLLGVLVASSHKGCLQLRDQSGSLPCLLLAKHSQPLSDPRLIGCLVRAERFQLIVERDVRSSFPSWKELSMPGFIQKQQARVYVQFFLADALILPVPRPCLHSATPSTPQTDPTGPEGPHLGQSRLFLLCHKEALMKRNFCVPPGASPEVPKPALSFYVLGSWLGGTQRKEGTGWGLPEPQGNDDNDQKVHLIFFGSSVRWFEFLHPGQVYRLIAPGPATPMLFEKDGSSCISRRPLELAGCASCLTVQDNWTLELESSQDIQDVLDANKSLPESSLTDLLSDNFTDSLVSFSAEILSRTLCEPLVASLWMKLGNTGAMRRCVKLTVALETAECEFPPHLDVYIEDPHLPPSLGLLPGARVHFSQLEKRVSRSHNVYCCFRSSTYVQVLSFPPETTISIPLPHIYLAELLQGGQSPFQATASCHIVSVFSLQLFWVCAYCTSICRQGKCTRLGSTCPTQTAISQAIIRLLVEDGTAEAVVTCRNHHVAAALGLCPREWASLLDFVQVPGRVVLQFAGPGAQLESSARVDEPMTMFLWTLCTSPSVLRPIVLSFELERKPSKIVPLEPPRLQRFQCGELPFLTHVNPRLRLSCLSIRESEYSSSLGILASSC
UniProt Q86WV5: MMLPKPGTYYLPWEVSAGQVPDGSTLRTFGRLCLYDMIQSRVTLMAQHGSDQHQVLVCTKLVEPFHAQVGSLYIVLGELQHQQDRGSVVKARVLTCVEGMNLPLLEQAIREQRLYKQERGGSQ
UniProt Q9UQE7: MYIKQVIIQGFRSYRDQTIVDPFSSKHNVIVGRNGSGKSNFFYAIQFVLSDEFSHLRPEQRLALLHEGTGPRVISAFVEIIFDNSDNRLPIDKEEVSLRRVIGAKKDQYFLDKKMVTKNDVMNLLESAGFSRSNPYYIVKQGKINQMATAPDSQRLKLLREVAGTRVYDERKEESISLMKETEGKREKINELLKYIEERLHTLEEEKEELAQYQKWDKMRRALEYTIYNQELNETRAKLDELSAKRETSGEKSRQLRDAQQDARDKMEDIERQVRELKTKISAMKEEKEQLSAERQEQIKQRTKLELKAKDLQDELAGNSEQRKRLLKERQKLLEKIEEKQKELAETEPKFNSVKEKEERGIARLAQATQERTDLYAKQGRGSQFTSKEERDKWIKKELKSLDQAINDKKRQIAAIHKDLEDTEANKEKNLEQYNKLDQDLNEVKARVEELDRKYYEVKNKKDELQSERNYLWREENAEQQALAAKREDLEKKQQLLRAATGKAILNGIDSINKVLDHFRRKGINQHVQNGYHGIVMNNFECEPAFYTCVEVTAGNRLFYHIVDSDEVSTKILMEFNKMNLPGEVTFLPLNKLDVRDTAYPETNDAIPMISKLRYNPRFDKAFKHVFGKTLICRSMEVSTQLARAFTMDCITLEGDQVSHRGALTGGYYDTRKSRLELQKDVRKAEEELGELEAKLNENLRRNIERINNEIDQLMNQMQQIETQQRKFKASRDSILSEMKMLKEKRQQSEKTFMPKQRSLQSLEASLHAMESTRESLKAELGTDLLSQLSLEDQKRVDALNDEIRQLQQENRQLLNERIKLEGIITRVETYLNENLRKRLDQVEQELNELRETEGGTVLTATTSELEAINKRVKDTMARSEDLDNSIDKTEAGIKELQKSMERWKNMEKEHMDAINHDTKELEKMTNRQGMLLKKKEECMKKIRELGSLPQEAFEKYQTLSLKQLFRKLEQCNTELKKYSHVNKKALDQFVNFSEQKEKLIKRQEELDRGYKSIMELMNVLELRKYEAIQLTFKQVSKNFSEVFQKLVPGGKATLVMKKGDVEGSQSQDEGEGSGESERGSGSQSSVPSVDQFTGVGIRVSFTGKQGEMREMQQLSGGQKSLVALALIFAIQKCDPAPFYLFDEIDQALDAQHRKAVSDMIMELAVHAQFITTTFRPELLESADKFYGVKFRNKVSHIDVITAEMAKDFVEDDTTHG

Legend:
[1] = target: T1, Flag-tagged STN1, expressed alone (human) (UniProt Q9H668); assay: co-IP; IP of Flag-tagged proteins from nuclease-treated lysates of HEK293T cells expressing Flag-CTC1, Flag-STN1 or the full CST complex; blots for endogenous SMC3 and SMC1A
T1 sequence: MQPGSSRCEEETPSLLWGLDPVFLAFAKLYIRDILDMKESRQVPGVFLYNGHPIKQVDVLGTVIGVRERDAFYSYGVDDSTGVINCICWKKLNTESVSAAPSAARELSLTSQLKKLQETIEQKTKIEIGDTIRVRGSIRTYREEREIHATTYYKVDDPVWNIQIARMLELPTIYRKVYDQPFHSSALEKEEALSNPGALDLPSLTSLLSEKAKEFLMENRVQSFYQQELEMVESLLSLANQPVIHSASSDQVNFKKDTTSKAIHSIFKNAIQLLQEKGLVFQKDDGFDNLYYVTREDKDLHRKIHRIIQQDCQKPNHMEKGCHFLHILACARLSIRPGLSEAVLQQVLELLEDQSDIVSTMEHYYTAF

[2] = target: CTC1-STN1-TEN1 (CST) complex, epitope-tagged, overexpressed (human) (UniProt Q2NKJ3+Q9H668+Q86WV5); assay: as above

In the case of “SMC3, endogenous (HEK293T) (from UniProt Q9UQE7 1-1217)”, the binding [1] is reported as “binds” and the binding [2] is reported as “binds”.
